Experimental data published in the supplement of paper PMC6411743.
± gives the standard deviation of the averaged measurements. The list shows a part of the results, in another mix than the full data. Most entries show no effect beyond the scatter of the controls.

By UniProt entry, the sequences of proteins in these tests, tags left out. Where a name states a change or a piece, a line headed by the entry shows the natural chain unless it says otherwise.
UniProt Q04724: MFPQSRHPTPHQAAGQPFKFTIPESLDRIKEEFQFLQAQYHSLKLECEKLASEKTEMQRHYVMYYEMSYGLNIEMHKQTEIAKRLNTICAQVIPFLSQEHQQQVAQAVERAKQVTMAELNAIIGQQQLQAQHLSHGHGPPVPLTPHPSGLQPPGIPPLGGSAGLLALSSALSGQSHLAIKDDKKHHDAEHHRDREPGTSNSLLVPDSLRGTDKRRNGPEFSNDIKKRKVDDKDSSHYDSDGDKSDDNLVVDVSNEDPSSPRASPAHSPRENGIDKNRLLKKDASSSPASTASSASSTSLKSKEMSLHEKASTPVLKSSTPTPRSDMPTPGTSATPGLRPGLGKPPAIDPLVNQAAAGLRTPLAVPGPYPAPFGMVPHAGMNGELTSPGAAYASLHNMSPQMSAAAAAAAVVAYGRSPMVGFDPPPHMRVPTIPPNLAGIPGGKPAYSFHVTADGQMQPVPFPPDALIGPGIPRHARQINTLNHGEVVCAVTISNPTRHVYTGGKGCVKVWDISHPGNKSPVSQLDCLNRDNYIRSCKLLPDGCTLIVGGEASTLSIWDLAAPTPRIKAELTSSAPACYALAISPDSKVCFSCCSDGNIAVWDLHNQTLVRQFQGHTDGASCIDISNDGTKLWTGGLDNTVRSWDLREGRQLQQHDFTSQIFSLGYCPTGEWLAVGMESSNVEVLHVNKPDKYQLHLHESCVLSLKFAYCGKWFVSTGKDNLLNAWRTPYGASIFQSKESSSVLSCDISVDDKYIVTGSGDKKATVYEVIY
UniProt Q12904: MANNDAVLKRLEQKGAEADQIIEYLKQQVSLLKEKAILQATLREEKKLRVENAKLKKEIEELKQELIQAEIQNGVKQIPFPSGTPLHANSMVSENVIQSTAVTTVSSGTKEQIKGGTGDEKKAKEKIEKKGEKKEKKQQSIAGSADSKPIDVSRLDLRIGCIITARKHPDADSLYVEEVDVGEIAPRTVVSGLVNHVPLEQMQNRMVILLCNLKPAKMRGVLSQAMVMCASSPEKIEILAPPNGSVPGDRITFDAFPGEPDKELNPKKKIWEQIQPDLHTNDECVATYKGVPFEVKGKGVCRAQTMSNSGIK
UniProt Q10589, whole entry: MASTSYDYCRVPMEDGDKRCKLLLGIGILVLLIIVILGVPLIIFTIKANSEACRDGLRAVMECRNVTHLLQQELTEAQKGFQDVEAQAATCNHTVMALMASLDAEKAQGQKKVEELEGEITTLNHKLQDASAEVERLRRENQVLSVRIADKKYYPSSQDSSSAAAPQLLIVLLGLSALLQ
UniProt Q13177, whole entry: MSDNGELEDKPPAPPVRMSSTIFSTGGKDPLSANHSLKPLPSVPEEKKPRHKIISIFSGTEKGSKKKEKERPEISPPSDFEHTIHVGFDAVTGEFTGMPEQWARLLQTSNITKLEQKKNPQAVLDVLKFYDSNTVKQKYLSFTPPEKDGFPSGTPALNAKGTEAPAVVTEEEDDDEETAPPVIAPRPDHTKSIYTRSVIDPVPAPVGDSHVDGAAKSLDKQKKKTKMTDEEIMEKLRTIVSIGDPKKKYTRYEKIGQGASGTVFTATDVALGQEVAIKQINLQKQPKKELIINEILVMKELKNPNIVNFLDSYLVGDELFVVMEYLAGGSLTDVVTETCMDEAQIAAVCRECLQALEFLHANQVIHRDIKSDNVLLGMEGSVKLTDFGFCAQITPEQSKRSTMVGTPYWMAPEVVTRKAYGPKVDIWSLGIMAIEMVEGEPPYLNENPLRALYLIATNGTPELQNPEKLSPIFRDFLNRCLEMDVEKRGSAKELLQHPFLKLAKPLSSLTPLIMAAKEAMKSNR
UniProt Q00722, whole entry: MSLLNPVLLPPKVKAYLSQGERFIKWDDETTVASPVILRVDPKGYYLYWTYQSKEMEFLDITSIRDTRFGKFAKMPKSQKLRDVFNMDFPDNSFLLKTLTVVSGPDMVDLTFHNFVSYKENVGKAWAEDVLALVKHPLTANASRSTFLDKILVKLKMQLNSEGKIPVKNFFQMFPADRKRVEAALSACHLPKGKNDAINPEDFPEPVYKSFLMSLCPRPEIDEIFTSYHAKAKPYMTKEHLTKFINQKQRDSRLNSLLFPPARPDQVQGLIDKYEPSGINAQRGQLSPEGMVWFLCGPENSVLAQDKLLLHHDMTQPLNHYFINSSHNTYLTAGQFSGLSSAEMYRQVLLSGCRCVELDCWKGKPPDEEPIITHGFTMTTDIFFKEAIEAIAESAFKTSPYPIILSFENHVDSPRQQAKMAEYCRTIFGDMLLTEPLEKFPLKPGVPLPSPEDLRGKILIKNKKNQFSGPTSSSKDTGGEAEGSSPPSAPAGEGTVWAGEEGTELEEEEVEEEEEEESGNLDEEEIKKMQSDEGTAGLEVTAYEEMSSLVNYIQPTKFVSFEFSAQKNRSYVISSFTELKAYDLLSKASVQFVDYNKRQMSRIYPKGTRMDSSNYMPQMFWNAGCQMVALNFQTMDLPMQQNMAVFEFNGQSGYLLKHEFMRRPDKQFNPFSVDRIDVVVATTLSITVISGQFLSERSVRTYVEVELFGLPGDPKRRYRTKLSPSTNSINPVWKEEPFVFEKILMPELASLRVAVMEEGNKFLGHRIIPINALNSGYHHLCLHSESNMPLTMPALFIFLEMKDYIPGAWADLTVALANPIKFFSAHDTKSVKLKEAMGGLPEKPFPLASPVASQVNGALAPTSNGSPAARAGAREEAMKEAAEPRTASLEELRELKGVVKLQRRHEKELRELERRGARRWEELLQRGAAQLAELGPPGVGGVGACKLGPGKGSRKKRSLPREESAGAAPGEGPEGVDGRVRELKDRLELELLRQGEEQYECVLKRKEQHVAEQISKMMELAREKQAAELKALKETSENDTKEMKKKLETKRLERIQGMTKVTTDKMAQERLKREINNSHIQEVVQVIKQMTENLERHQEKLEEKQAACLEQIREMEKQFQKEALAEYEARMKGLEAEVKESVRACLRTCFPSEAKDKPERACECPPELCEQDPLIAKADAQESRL
UniProt Q13951, whole entry: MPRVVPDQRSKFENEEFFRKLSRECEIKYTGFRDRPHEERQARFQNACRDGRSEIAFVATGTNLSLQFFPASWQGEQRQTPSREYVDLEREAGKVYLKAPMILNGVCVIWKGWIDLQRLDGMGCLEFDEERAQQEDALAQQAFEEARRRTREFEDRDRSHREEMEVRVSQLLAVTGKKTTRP
UniProt Q13618, whole entry: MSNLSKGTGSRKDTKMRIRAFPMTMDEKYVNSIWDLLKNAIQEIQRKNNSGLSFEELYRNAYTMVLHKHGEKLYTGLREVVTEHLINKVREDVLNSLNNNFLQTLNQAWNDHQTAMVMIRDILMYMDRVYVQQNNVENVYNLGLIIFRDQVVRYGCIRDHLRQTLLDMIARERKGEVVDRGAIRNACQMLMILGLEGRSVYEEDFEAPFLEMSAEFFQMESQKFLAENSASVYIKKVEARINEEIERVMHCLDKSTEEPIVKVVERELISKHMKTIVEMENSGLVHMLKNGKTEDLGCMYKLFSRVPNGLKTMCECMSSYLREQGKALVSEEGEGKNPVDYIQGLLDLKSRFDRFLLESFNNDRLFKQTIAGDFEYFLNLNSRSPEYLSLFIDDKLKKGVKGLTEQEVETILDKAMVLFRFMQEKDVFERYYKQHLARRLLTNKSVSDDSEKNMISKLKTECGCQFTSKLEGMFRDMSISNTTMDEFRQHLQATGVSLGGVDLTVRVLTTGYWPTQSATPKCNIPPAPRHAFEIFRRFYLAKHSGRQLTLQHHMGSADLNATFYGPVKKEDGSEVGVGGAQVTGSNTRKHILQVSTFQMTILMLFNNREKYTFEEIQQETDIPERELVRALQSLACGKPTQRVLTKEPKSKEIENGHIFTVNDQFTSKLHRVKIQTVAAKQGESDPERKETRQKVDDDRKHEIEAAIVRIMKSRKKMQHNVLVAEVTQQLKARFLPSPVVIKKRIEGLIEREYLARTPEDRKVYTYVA
UniProt Q05655: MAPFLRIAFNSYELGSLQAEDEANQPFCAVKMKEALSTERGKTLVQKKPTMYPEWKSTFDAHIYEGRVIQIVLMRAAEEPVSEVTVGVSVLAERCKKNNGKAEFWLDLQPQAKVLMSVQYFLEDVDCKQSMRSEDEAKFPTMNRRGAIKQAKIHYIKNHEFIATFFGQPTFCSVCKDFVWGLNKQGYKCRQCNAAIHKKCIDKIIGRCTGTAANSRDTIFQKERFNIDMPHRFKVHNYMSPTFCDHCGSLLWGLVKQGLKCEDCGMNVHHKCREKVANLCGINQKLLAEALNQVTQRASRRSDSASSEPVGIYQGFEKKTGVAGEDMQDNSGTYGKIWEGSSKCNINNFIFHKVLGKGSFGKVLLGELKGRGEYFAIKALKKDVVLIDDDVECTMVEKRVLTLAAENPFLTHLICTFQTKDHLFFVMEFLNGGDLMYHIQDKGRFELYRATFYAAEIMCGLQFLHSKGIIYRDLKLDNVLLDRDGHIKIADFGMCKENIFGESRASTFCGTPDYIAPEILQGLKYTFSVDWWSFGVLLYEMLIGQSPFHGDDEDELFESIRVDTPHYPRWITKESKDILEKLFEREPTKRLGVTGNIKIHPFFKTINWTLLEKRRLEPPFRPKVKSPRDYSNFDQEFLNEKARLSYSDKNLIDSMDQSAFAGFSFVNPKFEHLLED
UniProt Q13049: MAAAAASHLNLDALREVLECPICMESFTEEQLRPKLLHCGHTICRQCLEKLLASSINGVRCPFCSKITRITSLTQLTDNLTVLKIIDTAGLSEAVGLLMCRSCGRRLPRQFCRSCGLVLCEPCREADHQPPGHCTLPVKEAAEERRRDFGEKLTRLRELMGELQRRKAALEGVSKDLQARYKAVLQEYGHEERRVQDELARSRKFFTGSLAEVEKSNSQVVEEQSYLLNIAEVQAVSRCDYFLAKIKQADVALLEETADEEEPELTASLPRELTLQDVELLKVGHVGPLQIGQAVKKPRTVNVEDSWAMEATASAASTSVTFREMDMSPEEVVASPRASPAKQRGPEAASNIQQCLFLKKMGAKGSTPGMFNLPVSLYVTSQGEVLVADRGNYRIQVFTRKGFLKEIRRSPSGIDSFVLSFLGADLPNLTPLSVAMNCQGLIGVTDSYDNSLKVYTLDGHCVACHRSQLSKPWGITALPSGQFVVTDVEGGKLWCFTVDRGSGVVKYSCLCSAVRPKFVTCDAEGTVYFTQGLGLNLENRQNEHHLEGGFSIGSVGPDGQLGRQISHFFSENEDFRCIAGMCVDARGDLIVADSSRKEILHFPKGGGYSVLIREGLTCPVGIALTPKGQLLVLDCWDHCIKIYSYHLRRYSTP
UniProt Q13625: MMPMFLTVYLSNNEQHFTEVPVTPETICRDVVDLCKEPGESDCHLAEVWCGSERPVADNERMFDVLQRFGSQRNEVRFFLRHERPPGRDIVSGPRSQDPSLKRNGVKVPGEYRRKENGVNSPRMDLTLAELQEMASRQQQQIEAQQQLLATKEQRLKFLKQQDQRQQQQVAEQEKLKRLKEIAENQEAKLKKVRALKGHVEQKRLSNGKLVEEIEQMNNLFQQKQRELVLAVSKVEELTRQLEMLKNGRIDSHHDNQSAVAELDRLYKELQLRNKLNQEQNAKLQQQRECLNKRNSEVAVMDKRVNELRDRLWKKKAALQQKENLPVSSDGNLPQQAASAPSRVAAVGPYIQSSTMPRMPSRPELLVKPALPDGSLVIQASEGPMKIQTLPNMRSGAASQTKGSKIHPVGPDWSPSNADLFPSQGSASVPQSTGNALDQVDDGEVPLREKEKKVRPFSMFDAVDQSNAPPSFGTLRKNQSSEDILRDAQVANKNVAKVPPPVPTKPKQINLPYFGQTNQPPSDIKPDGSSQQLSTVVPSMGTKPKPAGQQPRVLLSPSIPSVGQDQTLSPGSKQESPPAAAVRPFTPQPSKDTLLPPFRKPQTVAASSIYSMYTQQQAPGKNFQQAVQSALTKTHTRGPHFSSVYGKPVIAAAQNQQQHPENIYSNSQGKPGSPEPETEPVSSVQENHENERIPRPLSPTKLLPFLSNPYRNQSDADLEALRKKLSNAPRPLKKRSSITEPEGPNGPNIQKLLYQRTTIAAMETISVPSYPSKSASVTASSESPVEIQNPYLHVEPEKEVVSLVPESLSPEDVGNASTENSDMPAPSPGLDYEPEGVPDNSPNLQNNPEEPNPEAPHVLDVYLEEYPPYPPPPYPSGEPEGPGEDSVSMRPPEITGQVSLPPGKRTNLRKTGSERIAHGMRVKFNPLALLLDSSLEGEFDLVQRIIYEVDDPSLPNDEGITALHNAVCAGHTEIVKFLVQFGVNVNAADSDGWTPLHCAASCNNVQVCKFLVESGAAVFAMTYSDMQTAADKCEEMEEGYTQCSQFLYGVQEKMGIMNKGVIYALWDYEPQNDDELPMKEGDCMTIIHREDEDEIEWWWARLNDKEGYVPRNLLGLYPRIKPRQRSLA
UniProt Q04941: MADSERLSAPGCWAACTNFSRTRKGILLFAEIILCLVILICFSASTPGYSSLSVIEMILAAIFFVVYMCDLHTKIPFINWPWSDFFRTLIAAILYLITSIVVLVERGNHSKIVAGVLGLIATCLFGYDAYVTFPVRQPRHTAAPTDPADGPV

Compound: Nc1ncnc2c1ncn2[C@@H]1O[C@H](COP(=O)(O)OP(=O)(O)OP(=O)(O)O)[C@@H](O)[C@H]1O [adenosine triphosphate]
Assay: NP40-soluble protein abundance relative to vehicle (solubility fold change) (ratio); higher = more soluble protein in presence of ATP
Summary of the method: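 Eight concentrations, 0.1 to 10 mM, were tested on Jurkat crude lysate for 10 min at room temperature and then 3 min at 37 °C, in three independent experiments. The lysate was solubilised with 0.8% NP40 and benzonase, ultracentrifuged, and the supernatant TMT-labelled for LC-MS/MS. Each value is the fold change against the detergent-processed vehicle in its own replicate, from vsn-normalised intensities.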

Target	NP40-soluble protein abundance (concentration: 0.1mM)	NP40-soluble protein abundance (concentration: 0.5mM)
UniProt Q13838 and related entries	1.05 ± 0.082	0.971 ± 0.073
COTL1 (UniProt Q14019)	0.918 ± 0.016	0.89 ± 0.074
REST (UniProt Q13127)	0.992 ± 0.042	1.05 ± 0.033
NUCB1 (UniProt Q02818)	0.982 ± 0.1	0.996 ± 0.062
Q05GC8 and related entries (UniProt Q96PN7+Q05GC8)	1.02 ± 0.029	1.06 ± 0.067
UniProt Q12933-2|Q12933 and related entries	1.07 ± 0.018	1.06 ± 0.067
UniProt Q04724 and related entries	1.05 ± 0.045	1.02 ± 0.07
OGDH (UniProt Q02218)	1.058 ± 0.0099	1.1 ± 0.054
UniProt Q12974	1.01 ± 0.063	0.964 ± 0.041
EXOSC10 (UniProt Q01780)	1.05 ± 0.029	1.06 ± 0.056
UniProt Q06124-2|Q06124	1.07 ± 0.072	1.05 ± 0.086
UniProt Q12904	0.961 ± 0.072	0.998 ± 0.092
UniProt Q10589 and related entries	1.01 ± 0.13	1 ± 0.14
G3BP1 (UniProt Q13283)	1.05 ± 0.03	1.06 ± 0.045
PAK2 (UniProt Q13177)	0.999 ± 0.056	1.04 ± 0.076
UniProt Q13561 and related entries	0.97 ± 0.089	0.915 ± 0.034
UniProt Q00722 and related entries	1 ± 0.025	0.975 ± 0.044
LRP1 (UniProt Q07954)	0.949 ± 0.078	0.966 ± 0.04
UniProt Q12800 and related entries	1.06 ± 0.12	1.05 ± 0.09
UniProt Q13951-2|Q13951	0.9788 ± 0.0094	0.9976 ± 0.0026
UniProt Q04760 and related entries	0.877 ± 0.084	0.828 ± 0.13

A few values from above:
EXOSC10 (UniProt Q01780) | NP40-soluble protein abundance (concentration: 0.1mM): 1.05 ± 0.029
UniProt Q12904 | NP40-soluble protein abundance (concentration: 0.1mM): 0.961 ± 0.072
UniProt Q10589 and related entries | NP40-soluble protein abundance (concentration: 0.1mM): 1.01 ± 0.13
UniProt Q13838 and related entries | NP40-soluble protein abundance (concentration: 0.1mM): 1.05 ± 0.082

(listing goes on)

Target	NP40-soluble protein abundance (concentration: 0.1mM)	NP40-soluble protein abundance (concentration: 0.5mM)
UniProt Q13535 and related entries	0.957 ± 0.056	0.993 ± 0.015
SCRN1 (UniProt Q12765)	1.05 ± 0.097	1.06 ± 0.12
GRAP (UniProt Q13588)	1.09 ± 0.068	1.09 ± 0.13
UniProt Q13618 and related entries	1.05 ± 0.098	1.04 ± 0.07
UniProt Q12906 and related entries	0.987 ± 0.053	1.07 ± 0.071
UniProt Q05655	1.07 ± 0.061	1.04 ± 0.073
IDI1 (UniProt Q13907)	0.975 ± 0.022	0.972 ± 0.033
ERCC8 (UniProt Q13216)	0.986 ± 0.023	0.99 ± 0.056
UniProt Q0VG06 and related entries	1.041 ± 0.0099	1.03 ± 0.065
UniProt Q04323 and related entries	0.962 ± 0.045	0.921 ± 0.12
SSBP1 (UniProt Q04837)	0.979 ± 0.044	1 ± 0.021
TRIM32 (UniProt Q13049)	0.968 ± 0.049	1.02 ± 0.053
UniProt Q02338 and related entries	1.04 ± 0.072	1.06 ± 0.075
UniProt Q06547 and related entries	1 ± 0.017	0.949 ± 0.024
UniProt Q13625 and related entries	0.984 ± 0.025	1.02 ± 0.048
IFIT5 (UniProt Q13325)	1.02 ± 0.087	1.03 ± 0.12
UniProt Q13740 and related entries	0.952 ± 0.026	0.928 ± 0.051
PPAT (UniProt Q06203)	1 ± 0.064	0.997 ± 0.012
UniProt Q13131 and related entries	1.03 ± 0.047	1.04 ± 0.047
PPIL2 (UniProt Q13356)	1.2 ± 0.047	1.27 ± 0.037
UniProt Q02241 and related entries	1.07 ± 0.022	1.14 ± 0.038

Target	NP40-soluble protein abundance (concentration: 0.1mM)	NP40-soluble protein abundance (concentration: 0.5mM)
SP4 (UniProt Q02446)	0.943 ± 0.025	0.998 ± 0.06
UniProt Q01518 and related entries	0.949 ± 0.038	0.978 ± 0.051
CKAP4 (UniProt Q07065)	0.973 ± 0.035	0.965 ± 0.016
FHL3 (UniProt Q13643)	1.03 ± 0.059	1.07 ± 0.15
BLMH (UniProt Q13867)	1.04 ± 0.098	1.05 ± 0.072
EIF2B5 (UniProt Q13144)	1.05 ± 0.026	1 ± 0.014
UniProt Q06323 and related entries	0.891 ± 0.08	0.863 ± 0.086
UniProt Q02447-3	0.968 ± 0.013	0.958 ± 0.024
UniProt Q13363 and related entries	1.01 ± 0.045	1.06 ± 0.081
CUL1 (UniProt Q13616)	1.01 ± 0.076	1.02 ± 0.033
ITPK1 (UniProt Q13572)	0.982 ± 0.028	0.929 ± 0.032
UniProt Q04864-2	1.04 ± 0.025	1.03 ± 0.02
UniProt Q13242	0.984 ± 0.093	1.09 ± 0.073
UniProt Q13303 and related entries	0.977 ± 0.064	0.979 ± 0.017
LMAN2 (UniProt Q12907)	1.05 ± 0.055	1.04 ± 0.036
UniProt Q12931 and related entries	1.03 ± 0.076	1.04 ± 0.046
PDAP1 (UniProt Q13442)	0.852 ± 0.15	0.85 ± 0.18
PLP2 (UniProt Q04941)	0.898 ± 0.011	0.868 ± 0.032
CSTF1 (UniProt Q05048)	1.02 ± 0.028	1 ± 0.024
TARDBP (UniProt Q13148)	0.982 ± 0.037	1.03 ± 0.033
